From the supplement of paper PMC6411743
± gives the standard deviation of the averaged measurements. The entries are a selection whose mix differs from that of the whole data set.

Chains of the proteins cited; added tags and fusions are not shown. Lines headed by an entry give the natural chain unless they say otherwise; changes in a name come on top.
UniProt Q9H9L4: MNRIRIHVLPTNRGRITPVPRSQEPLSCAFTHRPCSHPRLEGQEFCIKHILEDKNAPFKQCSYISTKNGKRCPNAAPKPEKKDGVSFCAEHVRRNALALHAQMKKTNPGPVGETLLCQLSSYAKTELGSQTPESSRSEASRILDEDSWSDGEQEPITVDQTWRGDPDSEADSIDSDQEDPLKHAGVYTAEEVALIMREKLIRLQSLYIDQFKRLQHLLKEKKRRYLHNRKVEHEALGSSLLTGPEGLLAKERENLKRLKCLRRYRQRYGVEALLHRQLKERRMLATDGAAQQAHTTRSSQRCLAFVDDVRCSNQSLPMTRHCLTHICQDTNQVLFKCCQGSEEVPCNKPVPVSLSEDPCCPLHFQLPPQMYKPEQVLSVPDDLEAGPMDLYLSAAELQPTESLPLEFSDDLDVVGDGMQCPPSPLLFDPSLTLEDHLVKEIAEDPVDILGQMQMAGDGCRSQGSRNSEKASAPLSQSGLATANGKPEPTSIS
UniProt P15311, whole entry: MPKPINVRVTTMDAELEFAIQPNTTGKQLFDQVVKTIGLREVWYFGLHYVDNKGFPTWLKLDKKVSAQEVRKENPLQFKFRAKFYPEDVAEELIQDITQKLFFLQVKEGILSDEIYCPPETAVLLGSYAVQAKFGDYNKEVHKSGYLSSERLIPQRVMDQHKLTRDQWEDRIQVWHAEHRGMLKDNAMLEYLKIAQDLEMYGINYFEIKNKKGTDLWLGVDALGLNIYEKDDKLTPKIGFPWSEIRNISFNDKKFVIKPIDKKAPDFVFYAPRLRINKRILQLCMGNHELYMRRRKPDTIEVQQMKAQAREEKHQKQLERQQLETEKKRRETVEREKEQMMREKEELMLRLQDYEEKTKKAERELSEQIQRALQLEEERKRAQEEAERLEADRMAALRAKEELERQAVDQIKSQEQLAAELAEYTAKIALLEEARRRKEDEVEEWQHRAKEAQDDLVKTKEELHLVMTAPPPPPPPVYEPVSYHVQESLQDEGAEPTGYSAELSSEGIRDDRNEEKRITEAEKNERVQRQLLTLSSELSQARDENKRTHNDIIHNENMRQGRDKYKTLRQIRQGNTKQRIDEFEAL
UniProt Q6ZU35: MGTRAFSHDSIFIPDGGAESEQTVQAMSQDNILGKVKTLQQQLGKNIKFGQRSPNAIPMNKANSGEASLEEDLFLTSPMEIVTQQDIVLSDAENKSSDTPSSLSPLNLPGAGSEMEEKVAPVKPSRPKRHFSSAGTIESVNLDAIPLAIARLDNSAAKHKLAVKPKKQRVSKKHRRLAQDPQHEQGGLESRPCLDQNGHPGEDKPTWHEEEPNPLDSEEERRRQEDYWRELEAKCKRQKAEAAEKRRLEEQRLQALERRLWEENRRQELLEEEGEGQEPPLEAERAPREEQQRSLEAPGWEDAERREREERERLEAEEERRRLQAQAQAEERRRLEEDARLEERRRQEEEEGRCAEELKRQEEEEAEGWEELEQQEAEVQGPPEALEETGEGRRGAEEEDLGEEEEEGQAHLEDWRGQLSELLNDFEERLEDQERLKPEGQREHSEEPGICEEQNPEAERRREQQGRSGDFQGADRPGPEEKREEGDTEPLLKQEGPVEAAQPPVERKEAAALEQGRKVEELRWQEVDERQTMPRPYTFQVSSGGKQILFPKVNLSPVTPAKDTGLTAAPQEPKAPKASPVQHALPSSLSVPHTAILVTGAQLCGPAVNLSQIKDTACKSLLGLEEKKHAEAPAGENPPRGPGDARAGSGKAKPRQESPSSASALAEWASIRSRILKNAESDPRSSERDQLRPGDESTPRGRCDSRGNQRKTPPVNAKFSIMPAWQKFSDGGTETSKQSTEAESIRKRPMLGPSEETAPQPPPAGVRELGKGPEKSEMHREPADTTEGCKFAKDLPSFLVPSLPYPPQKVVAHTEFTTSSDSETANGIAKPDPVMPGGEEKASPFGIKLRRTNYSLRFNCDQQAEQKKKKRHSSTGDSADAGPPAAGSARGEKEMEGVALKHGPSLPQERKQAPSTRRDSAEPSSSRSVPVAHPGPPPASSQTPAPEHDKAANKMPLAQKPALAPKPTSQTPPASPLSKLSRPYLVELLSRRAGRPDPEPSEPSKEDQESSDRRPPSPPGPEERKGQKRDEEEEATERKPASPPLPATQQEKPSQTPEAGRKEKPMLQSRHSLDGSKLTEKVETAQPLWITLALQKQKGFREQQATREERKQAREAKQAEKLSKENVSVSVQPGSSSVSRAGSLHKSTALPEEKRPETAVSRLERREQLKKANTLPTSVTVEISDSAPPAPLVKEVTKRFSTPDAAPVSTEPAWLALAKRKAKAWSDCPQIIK
UniProt Q9HCU9: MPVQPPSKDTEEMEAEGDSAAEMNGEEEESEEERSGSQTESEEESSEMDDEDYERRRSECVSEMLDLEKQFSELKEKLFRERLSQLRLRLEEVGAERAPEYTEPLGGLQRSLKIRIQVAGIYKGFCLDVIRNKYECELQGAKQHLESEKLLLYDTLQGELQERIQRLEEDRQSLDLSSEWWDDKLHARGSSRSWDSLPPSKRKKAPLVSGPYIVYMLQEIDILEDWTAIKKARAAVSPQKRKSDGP
UniProt Q8N8R7: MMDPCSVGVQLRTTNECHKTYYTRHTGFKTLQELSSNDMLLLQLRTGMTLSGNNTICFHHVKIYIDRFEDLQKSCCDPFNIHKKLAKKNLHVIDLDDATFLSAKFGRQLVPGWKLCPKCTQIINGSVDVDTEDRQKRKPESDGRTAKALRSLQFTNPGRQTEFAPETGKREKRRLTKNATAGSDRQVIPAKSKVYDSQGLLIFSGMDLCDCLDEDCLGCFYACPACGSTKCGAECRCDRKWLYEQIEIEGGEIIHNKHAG
UniProt P60660, whole entry: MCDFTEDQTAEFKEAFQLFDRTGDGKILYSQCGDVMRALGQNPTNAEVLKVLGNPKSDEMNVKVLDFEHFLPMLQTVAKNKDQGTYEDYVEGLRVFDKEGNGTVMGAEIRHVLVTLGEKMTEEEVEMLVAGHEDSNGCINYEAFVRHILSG
UniProt Q16881, whole entry: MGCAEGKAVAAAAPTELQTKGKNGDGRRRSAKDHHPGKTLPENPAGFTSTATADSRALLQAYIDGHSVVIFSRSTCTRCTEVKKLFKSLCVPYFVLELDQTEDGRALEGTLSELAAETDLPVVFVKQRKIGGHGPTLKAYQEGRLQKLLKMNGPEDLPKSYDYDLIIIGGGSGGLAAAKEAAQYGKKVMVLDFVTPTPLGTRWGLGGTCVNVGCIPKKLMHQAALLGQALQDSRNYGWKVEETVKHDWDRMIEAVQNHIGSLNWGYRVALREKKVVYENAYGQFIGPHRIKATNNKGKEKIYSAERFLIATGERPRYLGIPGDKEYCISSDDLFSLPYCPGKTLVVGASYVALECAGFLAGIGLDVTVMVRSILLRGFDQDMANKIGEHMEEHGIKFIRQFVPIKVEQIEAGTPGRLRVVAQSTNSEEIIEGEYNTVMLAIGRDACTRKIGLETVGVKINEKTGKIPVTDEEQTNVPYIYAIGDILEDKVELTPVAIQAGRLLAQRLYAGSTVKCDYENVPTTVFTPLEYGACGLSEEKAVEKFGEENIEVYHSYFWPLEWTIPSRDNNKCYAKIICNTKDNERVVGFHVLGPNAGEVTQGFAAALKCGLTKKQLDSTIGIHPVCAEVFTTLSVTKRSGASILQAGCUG
UniProt P0DJD0, whole entry, looked up: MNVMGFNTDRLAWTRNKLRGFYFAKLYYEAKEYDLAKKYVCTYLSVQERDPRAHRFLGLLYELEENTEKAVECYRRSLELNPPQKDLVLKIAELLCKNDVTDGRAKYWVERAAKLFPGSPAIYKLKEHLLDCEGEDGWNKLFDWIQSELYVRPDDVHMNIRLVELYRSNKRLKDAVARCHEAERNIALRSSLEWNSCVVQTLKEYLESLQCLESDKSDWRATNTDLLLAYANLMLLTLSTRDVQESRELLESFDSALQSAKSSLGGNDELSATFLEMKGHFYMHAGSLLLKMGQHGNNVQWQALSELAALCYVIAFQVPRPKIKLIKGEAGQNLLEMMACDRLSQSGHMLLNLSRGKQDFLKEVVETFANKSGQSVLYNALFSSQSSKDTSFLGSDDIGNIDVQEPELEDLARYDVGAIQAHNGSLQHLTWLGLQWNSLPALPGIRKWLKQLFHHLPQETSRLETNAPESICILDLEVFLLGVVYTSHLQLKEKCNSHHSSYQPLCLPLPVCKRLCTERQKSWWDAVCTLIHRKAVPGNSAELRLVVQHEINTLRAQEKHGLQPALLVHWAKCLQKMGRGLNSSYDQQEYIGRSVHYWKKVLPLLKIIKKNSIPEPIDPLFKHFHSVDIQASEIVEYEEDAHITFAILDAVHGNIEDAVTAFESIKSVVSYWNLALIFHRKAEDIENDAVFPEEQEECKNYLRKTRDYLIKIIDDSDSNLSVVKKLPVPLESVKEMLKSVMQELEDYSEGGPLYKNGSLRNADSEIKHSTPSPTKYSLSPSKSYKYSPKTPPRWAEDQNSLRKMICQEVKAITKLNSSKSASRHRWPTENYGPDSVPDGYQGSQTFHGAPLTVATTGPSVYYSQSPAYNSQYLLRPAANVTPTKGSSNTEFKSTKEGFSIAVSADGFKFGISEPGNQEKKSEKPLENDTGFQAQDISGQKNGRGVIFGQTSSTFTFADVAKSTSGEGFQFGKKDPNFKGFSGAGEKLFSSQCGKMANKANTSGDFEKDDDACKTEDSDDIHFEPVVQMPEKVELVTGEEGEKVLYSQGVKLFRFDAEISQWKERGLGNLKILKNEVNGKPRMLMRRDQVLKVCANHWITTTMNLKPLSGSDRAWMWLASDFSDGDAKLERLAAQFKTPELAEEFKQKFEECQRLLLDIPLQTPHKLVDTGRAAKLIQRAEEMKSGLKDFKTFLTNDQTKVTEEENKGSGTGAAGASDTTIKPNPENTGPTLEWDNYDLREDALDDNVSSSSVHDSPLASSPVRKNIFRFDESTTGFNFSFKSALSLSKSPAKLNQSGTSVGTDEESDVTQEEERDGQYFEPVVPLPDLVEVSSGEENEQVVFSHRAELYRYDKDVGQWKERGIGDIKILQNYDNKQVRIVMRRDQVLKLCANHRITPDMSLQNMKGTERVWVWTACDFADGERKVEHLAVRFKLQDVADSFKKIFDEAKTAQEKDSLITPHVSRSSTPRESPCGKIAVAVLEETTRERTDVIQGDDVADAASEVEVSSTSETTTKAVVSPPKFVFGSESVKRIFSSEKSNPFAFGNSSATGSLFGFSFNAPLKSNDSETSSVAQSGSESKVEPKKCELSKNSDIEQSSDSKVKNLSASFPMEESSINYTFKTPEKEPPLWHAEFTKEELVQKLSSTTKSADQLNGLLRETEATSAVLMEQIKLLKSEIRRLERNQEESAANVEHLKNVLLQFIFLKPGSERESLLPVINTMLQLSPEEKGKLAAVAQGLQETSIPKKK
UniProt Q9C0E2: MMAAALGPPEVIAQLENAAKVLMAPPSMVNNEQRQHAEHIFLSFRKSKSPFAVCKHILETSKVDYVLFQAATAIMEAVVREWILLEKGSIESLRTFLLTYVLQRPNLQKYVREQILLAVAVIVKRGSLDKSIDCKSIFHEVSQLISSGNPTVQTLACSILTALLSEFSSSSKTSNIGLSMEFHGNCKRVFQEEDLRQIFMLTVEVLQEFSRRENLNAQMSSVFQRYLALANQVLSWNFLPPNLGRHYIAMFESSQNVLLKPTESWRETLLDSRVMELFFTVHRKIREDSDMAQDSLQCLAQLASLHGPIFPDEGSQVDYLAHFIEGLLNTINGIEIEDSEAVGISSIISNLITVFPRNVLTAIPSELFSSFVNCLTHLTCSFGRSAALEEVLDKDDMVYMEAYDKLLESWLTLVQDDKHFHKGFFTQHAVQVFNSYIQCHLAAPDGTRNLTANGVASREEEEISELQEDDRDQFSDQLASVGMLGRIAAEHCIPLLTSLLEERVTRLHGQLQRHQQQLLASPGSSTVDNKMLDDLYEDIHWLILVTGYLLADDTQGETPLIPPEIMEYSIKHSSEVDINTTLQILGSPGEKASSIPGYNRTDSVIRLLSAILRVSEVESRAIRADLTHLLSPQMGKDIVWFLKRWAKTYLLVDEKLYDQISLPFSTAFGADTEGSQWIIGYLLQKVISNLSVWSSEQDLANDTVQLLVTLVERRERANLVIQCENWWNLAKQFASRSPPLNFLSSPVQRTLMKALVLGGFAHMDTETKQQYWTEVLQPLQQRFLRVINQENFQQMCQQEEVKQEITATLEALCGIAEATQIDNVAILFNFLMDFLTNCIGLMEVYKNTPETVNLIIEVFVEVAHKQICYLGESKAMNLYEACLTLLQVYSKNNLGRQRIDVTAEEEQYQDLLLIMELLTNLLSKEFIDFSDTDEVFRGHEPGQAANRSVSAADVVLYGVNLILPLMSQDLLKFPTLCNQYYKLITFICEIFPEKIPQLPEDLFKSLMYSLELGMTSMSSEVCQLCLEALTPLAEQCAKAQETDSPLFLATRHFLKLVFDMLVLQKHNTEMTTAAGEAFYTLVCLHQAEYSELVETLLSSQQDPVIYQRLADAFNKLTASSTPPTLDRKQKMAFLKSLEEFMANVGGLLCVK

Compound: Nc1ncnc2c1ncn2[C@@H]1O[C@H](COP(=O)(O)OP(=O)(O)NP(=O)(O)O)[C@@H](O)[C@H]1O [adenylyl imidodiphosphate]
Assay: NP40-soluble protein abundance relative to vehicle (solubility fold change) (ratio); higher = more soluble protein in presence of AMP-PNP
Procedure, shortened: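 Jurkat crude lysate (Dounce-homogenised) was treated with eight concentrations from 0.1 to 10 mM for 10 min at room temperature, then 3 min at 37 °C. It was solubilised with 0.8% NP40 and benzonase (60 min, 4 °C) and ultracentrifuged, and the supernatant was TMT-labelled for LC-MS/MS. Intensities were vsn-normalised, and the value is the fold change against the NP40-processed vehicle per replicate, from three independent experiments.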

Target: UniProt E9PSI1
- NP40-soluble protein abundance (concentration: 1mM): 0.965 ± 0.047
- NP40-soluble protein abundance (concentration: 2mM): 0.974 ± 0.046
- NP40-soluble protein abundance (concentration: 4mM): 0.937 ± 0.036
- NP40-soluble protein abundance (concentration: 6mM): 0.946 ± 0.037
- NP40-soluble protein abundance (concentration: 8mM): 0.924 ± 0.03
- NP40-soluble protein abundance (concentration: 10mM): 0.92 ± 0.039

Target: F8VX10 and related entries (UniProt Q9H9L4)
- NP40-soluble protein abundance (concentration: 1mM): 1.01 ± 0.014
- NP40-soluble protein abundance (concentration: 2mM): 1.06 ± 0.033
- NP40-soluble protein abundance (concentration: 4mM): 1.05 ± 0.033
- NP40-soluble protein abundance (concentration: 6mM): 1.02 ± 0.066
- NP40-soluble protein abundance (concentration: 8mM): 1.031 ± 0.0027
- NP40-soluble protein abundance (concentration: 10mM): 1.04 ± 0.044

Target: F8WDV0 and related entries (UniProt Q9UI26)
- NP40-soluble protein abundance (concentration: 1mM): 0.985 ± 0.025
- NP40-soluble protein abundance (concentration: 2mM): 0.935 ± 0.057
- NP40-soluble protein abundance (concentration: 4mM): 0.973 ± 0.011
- NP40-soluble protein abundance (concentration: 6mM): 0.978 ± 0.023
- NP40-soluble protein abundance (concentration: 8mM): 0.956 ± 0.043
- NP40-soluble protein abundance (concentration: 10mM): 0.954 ± 0.027

Target: E7EQR4 and related entries (UniProt P15311)
- NP40-soluble protein abundance (concentration: 1mM): 1.02 ± 0.026
- NP40-soluble protein abundance (concentration: 2mM): 1.03 ± 0.019
- NP40-soluble protein abundance (concentration: 4mM): 0.983 ± 0.045
- NP40-soluble protein abundance (concentration: 6mM): 0.99 ± 0.026
- NP40-soluble protein abundance (concentration: 8mM): 0.966 ± 0.026
- NP40-soluble protein abundance (concentration: 10mM): 0.99 ± 0.081

Target: F5H1N7 and related entries (UniProt Q6ZU35)
- NP40-soluble protein abundance (concentration: 1mM): 1.0957 ± 0.00043
- NP40-soluble protein abundance (concentration: 2mM): 1.1 ± 0.089
- NP40-soluble protein abundance (concentration: 4mM): 1.07 ± 0.063
- NP40-soluble protein abundance (concentration: 6mM): 1.1 ± 0.042
- NP40-soluble protein abundance (concentration: 8mM): 1.07 ± 0.043
- NP40-soluble protein abundance (concentration: 10mM): 1.12 ± 0.036

Target: F8W9W2 and related entries (UniProt P43250)
- NP40-soluble protein abundance (concentration: 1mM): 1.07 ± 0.023
- NP40-soluble protein abundance (concentration: 2mM): 1.05 ± 0.075
- NP40-soluble protein abundance (concentration: 4mM): 1.09 ± 0.052
- NP40-soluble protein abundance (concentration: 6mM): 1.1 ± 0.068
- NP40-soluble protein abundance (concentration: 8mM): 1.12 ± 0.026
- NP40-soluble protein abundance (concentration: 10mM): 1.12 ± 0.082

Target: E7EPT4 and related entries (UniProt P19404)
- NP40-soluble protein abundance (concentration: 1mM): 0.924 ± 0.03
- NP40-soluble protein abundance (concentration: 2mM): 0.961 ± 0.073
- NP40-soluble protein abundance (concentration: 4mM): 0.914 ± 0.025
- NP40-soluble protein abundance (concentration: 6mM): 0.866 ± 0.04
- NP40-soluble protein abundance (concentration: 8mM): 0.881 ± 0.052
- NP40-soluble protein abundance (concentration: 10mM): 0.869 ± 0.052

Target: E9PJF5 and related entries (UniProt Q9HCU9)
- NP40-soluble protein abundance (concentration: 1mM): 1.03 ± 0.018
- NP40-soluble protein abundance (concentration: 2mM): 1.05 ± 0.04
- NP40-soluble protein abundance (concentration: 4mM): 1.01 ± 0.012
- NP40-soluble protein abundance (concentration: 6mM): 1 ± 0.016
- NP40-soluble protein abundance (concentration: 8mM): 0.989 ± 0.041
- NP40-soluble protein abundance (concentration: 10mM): 1.02 ± 0.051

Target: E7EPM6 and related entries (UniProt P33121)
- NP40-soluble protein abundance (concentration: 1mM): 0.986 ± 0.013
- NP40-soluble protein abundance (concentration: 2mM): 0.936 ± 0.088
- NP40-soluble protein abundance (concentration: 4mM): 0.99 ± 0.021
- NP40-soluble protein abundance (concentration: 6mM): 0.938 ± 0.031
- NP40-soluble protein abundance (concentration: 8mM): 0.963 ± 0.03
- NP40-soluble protein abundance (concentration: 10mM): 0.916 ± 0.027

Target: E9PRK7 and related entries (UniProt Q8N8R7)
- NP40-soluble protein abundance (concentration: 1mM): 1.01 ± 0.028
- NP40-soluble protein abundance (concentration: 2mM): 0.998 ± 0.018
- NP40-soluble protein abundance (concentration: 4mM): 0.982 ± 0.0046
- NP40-soluble protein abundance (concentration: 6mM): 1 ± 0.037
- NP40-soluble protein abundance (concentration: 8mM): 0.987 ± 0.03
- NP40-soluble protein abundance (concentration: 10mM): 0.9978 ± 0.003

Target: E7EW18 and related entries (UniProt P06746)
- NP40-soluble protein abundance (concentration: 1mM): 1.07 ± 0.036
- NP40-soluble protein abundance (concentration: 2mM): 1.08 ± 0.048
- NP40-soluble protein abundance (concentration: 4mM): 1.1 ± 0.058
- NP40-soluble protein abundance (concentration: 6mM): 1.13 ± 0.062
- NP40-soluble protein abundance (concentration: 8mM): 1.14 ± 0.047
- NP40-soluble protein abundance (concentration: 10mM): 1.143 ± 0.0084

Target: G3V1V0 and related entries (UniProt P60660)
- NP40-soluble protein abundance (concentration: 1mM): 1.08 ± 0.065
- NP40-soluble protein abundance (concentration: 2mM): 1.25 ± 0.13
- NP40-soluble protein abundance (concentration: 4mM): 1.09 ± 0.064
- NP40-soluble protein abundance (concentration: 6mM): 1.06 ± 0.057
- NP40-soluble protein abundance (concentration: 8mM): 0.995 ± 0.044
- NP40-soluble protein abundance (concentration: 10mM): 1.07 ± 0.1

Target: F8W809 and related entries (UniProt Q16881)
- NP40-soluble protein abundance (concentration: 1mM): 0.9866 ± 0.0092
- NP40-soluble protein abundance (concentration: 2mM): 0.912 ± 0.093
- NP40-soluble protein abundance (concentration: 4mM): 0.956 ± 0.017
- NP40-soluble protein abundance (concentration: 6mM): 0.977 ± 0.017
- NP40-soluble protein abundance (concentration: 8mM): 0.99 ± 0.015
- NP40-soluble protein abundance (concentration: 10mM): 0.949 ± 0.022

Target: F8VYC4 and related entries (UniProt P0DJD1+P0DJD0+F8VYC4)
- NP40-soluble protein abundance (concentration: 1mM): 1.014 ± 0.0075
- NP40-soluble protein abundance (concentration: 2mM): 1.04 ± 0.025
- NP40-soluble protein abundance (concentration: 4mM): 0.984 ± 0.026
- NP40-soluble protein abundance (concentration: 6mM): 0.997 ± 0.011
- NP40-soluble protein abundance (concentration: 8mM): 0.986 ± 0.02
- NP40-soluble protein abundance (concentration: 10mM): 1.005 ± 0.0089

Target: F8WA39 and related entries (UniProt Q13613)
- NP40-soluble protein abundance (concentration: 1mM): 1.07 ± 0.067
- NP40-soluble protein abundance (concentration: 2mM): 1 ± 0.04
- NP40-soluble protein abundance (concentration: 4mM): 1.06 ± 0.055
- NP40-soluble protein abundance (concentration: 6mM): 0.9575 ± 0.0051
- NP40-soluble protein abundance (concentration: 8mM): 1.01 ± 0.03
- NP40-soluble protein abundance (concentration: 10mM): 0.976 ± 0.023

Target: F2Z2X4 and related entries (UniProt Q9C0E2)
- NP40-soluble protein abundance (concentration: 1mM): 0.952 ± 0.031
- NP40-soluble protein abundance (concentration: 2mM): 0.914 ± 0.033
- NP40-soluble protein abundance (concentration: 4mM): 0.962 ± 0.024
- NP40-soluble protein abundance (concentration: 6mM): 0.941 ± 0.05
- NP40-soluble protein abundance (concentration: 8mM): 0.936 ± 0.033
- NP40-soluble protein abundance (concentration: 10mM): 0.919 ± 0.056
